Laboratory results: PubChem BioAssay AID1259300 (Sanger Institute, 2017)
Shown is a random part of 794 reagents. Over the whole deposit, 18 (2.3%) got an active call. 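Calls rest on knock-down alone, not drug synergy; depositor treated synergy scores above 0.15 as synergistic; drug doses alone had little viability effect.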 A number with no mark means an inactive call. Viability is capped at 1. Further read-outs or replicates are left out here. Not given: the amount of reagent, the time to read-out.

- Purpose: 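Kinase and colorectal-mutated gene knock-downs lowering HCT15 viability or boosting drug effects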 (primary screen)
- Cells: HCT15 colorectal cancer cells
- Reagents: siRNA pool against human genes
- Treatment: anchor drug or DMSO vehicle added 24 h after seeding: BYL719 1 µM, cetuximab 5 µg/ml, trametinib 10 nM; drug doses chosen to barely affect viability alone
- Measured: 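Cell viability after knock-down, as fraction of non-targeting pool wells averaged over replicates, plus robust z-score for knock-down alone; synergy score per drug (BYL719 1 µM, cetuximab 5 µg/ml, trametinib 10 nM)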
- Reading the numbers: viability z-score, siRNA alone: higher = more viable cells after knock-down; viability vs non-targeting, siRNA alone: higher = more viable cells
- Rule for the call: 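a knock-down without drug that drives the robust viability z-score under -3 is active, i.e. essential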
- Meaning of the calls: active = essential: knock-down alone lowers viability (z below -3); inactive = no strong viability loss with knock-down alone

After knock-down of BPTF (GeneID 2186), the record shows viability z-score, siRNA alone 0.232; viability vs non-targeting, siRNA alone 0.971.
For EPHA7 (GeneID 2045), the values are viability z-score, siRNA alone 0.625; viability vs non-targeting, siRNA alone 1.
Against HIPK4 (GeneID 147746), the values are viability z-score, siRNA alone 0.625; viability vs non-targeting, siRNA alone 1.
For STK16 (GeneID 8576), the values are viability z-score, siRNA alone 0.625; viability vs non-targeting, siRNA alone 1.
For STRADA (GeneID 92335), the entry reads viability z-score, siRNA alone -0.229; viability vs non-targeting, siRNA alone 0.938.
CDK11B (GeneID 984) scored viability z-score, siRNA alone -0.276; viability vs non-targeting, siRNA alone 0.935.
For ERBB3 (GeneID 2065), the entry reads viability z-score, siRNA alone -0.496; viability vs non-targeting, siRNA alone 0.918.
For NTN4 (GeneID 59277), the values are viability z-score, siRNA alone -0.76; viability vs non-targeting, siRNA alone 0.899.
CSNK1A1 (GeneID 1452) gave viability z-score, siRNA alone 0.625; viability vs non-targeting, siRNA alone 1.
After knock-down of RPS6KA5 (GeneID 9252), the screen gave viability z-score, siRNA alone -0.491; viability vs non-targeting, siRNA alone 0.919.
With knock-down of GCK (GeneID 2645), the record shows viability z-score, siRNA alone -0.0321; viability vs non-targeting, siRNA alone 0.952.
With knock-down of UCK2 (GeneID 7371), the screen gave viability z-score, siRNA alone -1.65; viability vs non-targeting, siRNA alone 0.835.
FLT4 (GeneID 2324) scored viability z-score, siRNA alone 0.625; viability vs non-targeting, siRNA alone 1.
After knock-down of TYK2 (GeneID 7297) the results were viability z-score, siRNA alone -0.159; viability vs non-targeting, siRNA alone 0.943.
Silencing of IP6K2 (GeneID 51447) gave: viability z-score, siRNA alone 0.625; viability vs non-targeting, siRNA alone 1.
Against GRK1 (GeneID 6011), the values are viability z-score, siRNA alone -0.452; viability vs non-targeting, siRNA alone 0.922.
Against CDK1 (GeneID 983), the entry reads viability z-score, siRNA alone 0.625; viability vs non-targeting, siRNA alone 1.
Against TRIB2 (GeneID 28951), the values are viability z-score, siRNA alone 0.625; viability vs non-targeting, siRNA alone 1.
After knock-down of WNK1 (GeneID 65125) the results were viability z-score, siRNA alone 0.625; viability vs non-targeting, siRNA alone 1.
NIM1K (GeneID 167359) showed viability z-score, siRNA alone 0.107; viability vs non-targeting, siRNA alone 0.962.
CDK11A (GeneID 728642) scored viability z-score, siRNA alone -4.13 (active); viability vs non-targeting, siRNA alone 0.654.
With knock-down of AXIN2 (GeneID 8313), the record shows viability z-score, siRNA alone 0.466; viability vs non-targeting, siRNA alone 0.988.
Against MAPK1 (GeneID 5594), the values are viability z-score, siRNA alone 0.625; viability vs non-targeting, siRNA alone 1.
MAP4K3 (GeneID 8491) showed viability z-score, siRNA alone -0.49; viability vs non-targeting, siRNA alone 0.919.
With knock-down of SRC (GeneID 6714), the record shows viability z-score, siRNA alone 0.625; viability vs non-targeting, siRNA alone 1.
With knock-down of CDK18 (GeneID 5129), the record shows viability z-score, siRNA alone -5.21 (active); viability vs non-targeting, siRNA alone 0.575.
Depletion of RIPK2 (GeneID 8767) resulted in: viability z-score, siRNA alone 0.625; viability vs non-targeting, siRNA alone 1.
For PIKFYVE (GeneID 200576), the values are viability z-score, siRNA alone 0.0143; viability vs non-targeting, siRNA alone 0.956.

Looked up above:
Result of ERBB3 (GeneID 2065) in “viability vs non-targeting, siRNA alone”: 0.918
Entry of MAPK1 (GeneID 5594) in “viability z-score, siRNA alone”: 0.625
Result of TYK2 (GeneID 7297) under “viability vs non-targeting, siRNA alone”: 0.943
IP6K2 (GeneID 51447), viability z-score, siRNA alone → 0.625
